Library screen at single concentrations

By UniProt entry, the sequences of proteins in these tests, tags left out. Residues count along the entry.
UniProt A4I591, 1-473: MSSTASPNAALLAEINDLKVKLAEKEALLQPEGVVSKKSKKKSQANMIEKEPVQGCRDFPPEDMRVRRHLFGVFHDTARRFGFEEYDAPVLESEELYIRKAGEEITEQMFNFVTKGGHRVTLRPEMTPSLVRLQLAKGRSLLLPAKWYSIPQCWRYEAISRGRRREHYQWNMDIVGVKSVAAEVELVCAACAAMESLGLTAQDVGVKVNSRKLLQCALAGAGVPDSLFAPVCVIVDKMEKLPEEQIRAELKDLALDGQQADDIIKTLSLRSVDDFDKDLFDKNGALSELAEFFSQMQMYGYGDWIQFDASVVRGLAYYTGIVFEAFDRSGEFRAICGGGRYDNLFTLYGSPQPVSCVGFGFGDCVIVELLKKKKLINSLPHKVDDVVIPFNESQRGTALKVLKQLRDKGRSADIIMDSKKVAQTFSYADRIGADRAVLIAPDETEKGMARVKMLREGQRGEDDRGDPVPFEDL
UniProt P9WPC5, whole entry: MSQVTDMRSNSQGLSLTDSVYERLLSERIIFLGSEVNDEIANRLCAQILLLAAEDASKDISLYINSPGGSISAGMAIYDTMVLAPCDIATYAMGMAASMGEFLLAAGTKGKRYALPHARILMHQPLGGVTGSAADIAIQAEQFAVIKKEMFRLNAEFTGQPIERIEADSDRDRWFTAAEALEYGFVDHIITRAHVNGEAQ
UniProt P9WPC3, whole entry partner: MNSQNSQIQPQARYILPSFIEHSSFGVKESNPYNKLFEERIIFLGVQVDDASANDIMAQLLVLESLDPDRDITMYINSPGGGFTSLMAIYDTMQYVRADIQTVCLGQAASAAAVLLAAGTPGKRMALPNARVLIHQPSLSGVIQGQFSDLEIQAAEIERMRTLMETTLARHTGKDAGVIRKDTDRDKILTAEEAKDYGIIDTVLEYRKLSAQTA
UniProt Q4DA54, 1-478: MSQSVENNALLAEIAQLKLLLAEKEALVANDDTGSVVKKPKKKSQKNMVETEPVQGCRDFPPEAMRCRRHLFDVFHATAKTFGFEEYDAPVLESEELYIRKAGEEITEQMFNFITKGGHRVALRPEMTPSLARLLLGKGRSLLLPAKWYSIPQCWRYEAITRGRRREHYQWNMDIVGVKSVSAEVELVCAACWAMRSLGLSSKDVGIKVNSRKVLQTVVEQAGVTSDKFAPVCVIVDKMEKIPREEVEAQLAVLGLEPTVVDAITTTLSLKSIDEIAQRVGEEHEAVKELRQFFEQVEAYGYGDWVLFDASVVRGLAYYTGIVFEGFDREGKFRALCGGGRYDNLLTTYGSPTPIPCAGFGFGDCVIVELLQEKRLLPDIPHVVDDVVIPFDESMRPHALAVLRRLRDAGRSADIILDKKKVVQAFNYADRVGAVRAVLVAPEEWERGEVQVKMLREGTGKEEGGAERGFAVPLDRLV

From ChEMBL document CHEMBL3988442, “University of Dundee, Small-Polar-MMV Screening Library” (2021).

Toxoplasma: 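Assay of Toxoplasma gondii numbers, read through their beta-galactosidase reporter with a colour substrate. Concentration: 10 µM. The record gives no direction; the compounds picked for IC50 retests had high values, so higher reads as fewer parasites. Of about 67,000 compounds tested this way, about 260 (0.38%) reached 50% or more in at least one test.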
T. brucei: 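Whole-parasite assay of Trypanosoma brucei over 72 hours; the read-out is not stated. Tested at 30 µM. The record gives no direction; compounds that gave an IC50 in retests scored well above the rest, so higher reads as stronger inhibition. Values scatter widely below zero; nearly all retest evidence comes from the higher of the two concentrations used. About 64,000 compounds were tested under these conditions; 1.5% (about 940) showed 50% or more at least once.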
LiHisRS: 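Histidine-tRNA ligase, Leishmania infantum (UniProt A4I591). Enzyme assay of histidyl-tRNA synthetase; the read-out is not stated. Concentration: 30 µM. The record gives no direction; compounds that gave an IC50 in retests scored well above the rest, so higher reads as stronger inhibition. The assay is labelled LdHisRS but filed under L. infantum. Of about 69,000 compounds tested this way, about 410 (0.6%) reached 50% or more in at least one test.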
ClpP1P2: 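ClpP1P2, Mycobacterium tuberculosis (UniProt P9WPC5 and UniProt P9WPC3). Protease assay of ClpP1P2, read by the AMC dye that it sets free. Tested at 50 µM. Higher reads as stronger inhibition, judged from the few compounds that gave an IC50. Most other retested compounds had strongly negative values. Size under these conditions: about 69,000 compounds, about 10 of them at 50% or above in at least one test.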
TcHisRS: 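Histidine-tRNA ligase, Trypanosoma cruzi CL Brener (UniProt Q4DA54). Enzyme assay of histidyl-tRNA synthetase; the read-out is not stated. Concentration: 30 µM. Direction is inferred from retests: higher values go with stronger inhibition. Size under these conditions: about 69,000 compounds, about 31 of them at 50% or above in at least one test.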

The filed quantity is “Percent Effect” (%).
The record does not define 0% and 100%; most values in the screen are far below 50% and negative numbers occur (in some assays of this library far below -100).
Compounds were drawn at random from those tested, without regard to their results.

- CC(C)c1cc(N[C@@H](CO)C(N)=O)n2nccc2n1 | Toxoplasma: 2.055%; T. brucei: -6.29%; LiHisRS: -1.639%; ClpP1P2: -12.21%; TcHisRS: 4.04%
- CN(Cc1ccccc1)CC(O)Cn1cnc2sccc2c1=O (configuration not stated) | Toxoplasma: -6.964%; T. brucei: 17.11%; LiHisRS: 15.74%; ClpP1P2: -22.11%; TcHisRS: 6.158%
- Cc1cnc(N2CC[C@@H]3O[C@@H](COCc4ccccn4)CC[C@@H]32)nc1 | LiHisRS: 13%; ClpP1P2: 1.19%; TcHisRS: 7.143%
- O=c1cc(-c2ccc(F)cc2)nc2n1CCCCC2 | T. brucei: -33.27%; LiHisRS: 4.348%; ClpP1P2: -11.32%; TcHisRS: 1.98%
- O=C(O)C(F)(F)F.O=C(O)C(F)(F)F.[H][C@@]12CCN(CC3CCOCC3)C[C@]1(COc1ncccc1F)CCO2 | Toxoplasma: 1.329%; T. brucei: -10.77%
- Cc1nc(C2CCCN2CC(=O)NCCOc2cccc(F)c2)no1 (configuration not stated) | Toxoplasma: -7.852%; LiHisRS: 16.51%; ClpP1P2: -16.63%; TcHisRS: 4.706%
- COC1COC2(CCN(Cc3cccc(C#N)c3)CC2)C1.O=C(O)C(F)(F)F (configuration not stated) | Toxoplasma: 1.726%; T. brucei: -12.69%
- Clc1ccccc1-c1nc(CNC2CCc3ncnn3C2)cs1 (configuration not stated) | Toxoplasma: -1.128%; T. brucei: -46.17%; LiHisRS: 4.255%; ClpP1P2: 4.223%; TcHisRS: -0.7634%
- [H][C@]12CN(C(=O)c3ccc(C#N)nc3)CC[C@@]1(O)CCN(C(=O)N(C)C)C2 | Toxoplasma: -14.42%; T. brucei: -25.39%
- c1cncc(OCC2CN(Cc3nccs3)Cc3nccn3C2)c1 (configuration not stated) | LiHisRS: 5.556%; ClpP1P2: -1.68%; TcHisRS: 0.9524%
- Cc1nnc(CN2CCOC(c3ccc(Cl)cc3)C2)o1 (configuration not stated) | Toxoplasma: 11.85%; T. brucei: -79.09%; LiHisRS: 10.32%; ClpP1P2: 10.54%; TcHisRS: 3.529%
- CNS(=O)(=O)C1CCN(c2cc(C(C)C)nc(C(C)C)n2)C1 (configuration not stated) | T. brucei: -7.41%; LiHisRS: 17.39%; ClpP1P2: -1.835%; TcHisRS: 7.921%
- CCCC(NC(=O)c1ccc(OC)cc1C)c1nnn[nH]1 (configuration not stated) | Toxoplasma: 1.628%; T. brucei: 3.494%; LiHisRS: 15.18%; ClpP1P2: 0.389%; TcHisRS: 8.333%
- Cc1cc(NC(=O)c2nn(C3CCS(=O)(=O)C3)c3c2CCCC3)no1 (configuration not stated) | Toxoplasma: -15.29%; T. brucei: -25.48%; LiHisRS: 0%; ClpP1P2: -13.46%; TcHisRS: 0%
- N#Cc1cccc(CS(=O)(=O)NCC(O)Cc2ccccc2)c1 (configuration not stated) | Toxoplasma: -2.203%; T. brucei: -15.65%; LiHisRS: 6.796%; ClpP1P2: -22.59%; TcHisRS: 1.245%
- CCc1nc(C2CCCN(C(=O)NC3CC3)C2)no1 (configuration not stated) | Toxoplasma: 17.41%; LiHisRS: 11.5%; ClpP1P2: -38.59%; TcHisRS: 4.956%
- CCN(CC)CCNC(=O)c1ccc(Cl)c(NS(C)(=O)=O)c1 | Toxoplasma: -1.429%; T. brucei: -28.49%; LiHisRS: 0%; ClpP1P2: 2.498%; TcHisRS: 7.143%
- [H][C@]12CNC[C@@]1(C(=O)NCCOCCO)CN(C1CCCC1)C2 | Toxoplasma: 4.589%; T. brucei: 3.839%
- NC(=O)C1=NC2=NS(=O)(=O)c3ccccc3N2N1Cc1ccc(Br)cc1 | T. brucei: -15.95%; LiHisRS: 59.68%; ClpP1P2: -3.188%; TcHisRS: 9.195%
- CCCS(=O)(=O)NCC(C)(O)c1ccsc1 (configuration not stated) | Toxoplasma: 0.7308%; T. brucei: -29.21%; LiHisRS: 12.5%; ClpP1P2: -14.43%; TcHisRS: 4.386%
- Cc1nn(C)c(C)c1CCC(=O)N1CCCC(n2cccn2)C1 (configuration not stated) | Toxoplasma: -11.9%; T. brucei: -1.102%; LiHisRS: 11.61%; ClpP1P2: -10.29%; TcHisRS: -2.89%
- NC(=O)CN1CCCC(Cc2ccc(N3CCOCC3)nn2)C1 (configuration not stated) | Toxoplasma: -1.137%; T. brucei: 7.622%; LiHisRS: 3.158%; ClpP1P2: 10.91%; TcHisRS: 4.478%
- [H][C@@]12CCCO[C@]1([H])[C@H](NS(C)(=O)=O)CN2C(=O)c1cnccn1 | Toxoplasma: -6.882%; T. brucei: 1.602%

Repeated from the top, 2 entries:

- CC(C)c1cc(N[C@@H](CO)C(N)=O)n2nccc2n1 | Toxoplasma: 2.055%; T. brucei: -6.29%; LiHisRS: -1.639%; ClpP1P2: -12.21%; TcHisRS: 4.04%
- CN(Cc1ccccc1)CC(O)Cn1cnc2sccc2c1=O (configuration not stated) | Toxoplasma: -6.964%; T. brucei: 17.11%; LiHisRS: 15.74%; ClpP1P2: -22.11%; TcHisRS: 6.158%